These are yes or no findings as the source states them, for the method shown. In cells and extracts the contact can be indirect. Here binding means that the protein was enriched with, or labelled near, the bait; the list need not be complete. Where a sequence is shown, tags or fusion partners need not be part of it.

The chains behind the UniProt entries cited, without tags or fusion partners. Where a name states a change or a piece, a line headed by the entry shows the natural chain unless it says otherwise.
UniProt A0A097ATI1: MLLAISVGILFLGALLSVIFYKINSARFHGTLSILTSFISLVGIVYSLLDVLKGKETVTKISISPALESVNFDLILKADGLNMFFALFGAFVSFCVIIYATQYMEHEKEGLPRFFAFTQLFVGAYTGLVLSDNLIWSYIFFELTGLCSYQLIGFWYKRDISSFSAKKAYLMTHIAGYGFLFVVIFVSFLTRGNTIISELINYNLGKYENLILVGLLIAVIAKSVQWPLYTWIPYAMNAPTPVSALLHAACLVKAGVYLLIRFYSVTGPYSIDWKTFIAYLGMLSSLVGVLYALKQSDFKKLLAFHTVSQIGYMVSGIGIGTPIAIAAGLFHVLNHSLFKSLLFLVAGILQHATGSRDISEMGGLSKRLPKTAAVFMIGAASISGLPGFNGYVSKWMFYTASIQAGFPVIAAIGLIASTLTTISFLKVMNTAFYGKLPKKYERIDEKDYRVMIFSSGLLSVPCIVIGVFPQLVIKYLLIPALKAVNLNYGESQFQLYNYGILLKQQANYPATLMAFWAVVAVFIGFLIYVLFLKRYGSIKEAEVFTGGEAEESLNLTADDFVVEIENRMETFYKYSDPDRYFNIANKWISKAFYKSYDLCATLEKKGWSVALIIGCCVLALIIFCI
UniProt A0A097ATF1: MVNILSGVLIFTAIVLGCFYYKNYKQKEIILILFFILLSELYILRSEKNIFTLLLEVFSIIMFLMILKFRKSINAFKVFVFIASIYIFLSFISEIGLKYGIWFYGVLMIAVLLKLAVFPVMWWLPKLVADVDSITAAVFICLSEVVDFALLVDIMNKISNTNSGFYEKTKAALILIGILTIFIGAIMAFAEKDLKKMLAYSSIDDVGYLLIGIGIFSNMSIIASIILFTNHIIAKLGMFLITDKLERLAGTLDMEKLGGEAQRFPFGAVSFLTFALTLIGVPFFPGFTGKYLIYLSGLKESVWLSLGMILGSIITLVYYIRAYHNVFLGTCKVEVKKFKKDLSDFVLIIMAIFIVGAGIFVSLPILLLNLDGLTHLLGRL
UniProt A0A097ATH3: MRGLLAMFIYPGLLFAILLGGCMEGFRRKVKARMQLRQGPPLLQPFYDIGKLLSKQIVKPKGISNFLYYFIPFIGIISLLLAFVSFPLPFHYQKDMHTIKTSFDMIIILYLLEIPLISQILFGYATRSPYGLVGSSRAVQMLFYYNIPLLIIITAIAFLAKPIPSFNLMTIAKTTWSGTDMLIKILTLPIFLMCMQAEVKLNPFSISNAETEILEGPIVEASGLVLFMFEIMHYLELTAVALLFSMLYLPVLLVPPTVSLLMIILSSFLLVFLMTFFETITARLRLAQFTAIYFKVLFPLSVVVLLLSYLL
UniProt A0A097ATJ6: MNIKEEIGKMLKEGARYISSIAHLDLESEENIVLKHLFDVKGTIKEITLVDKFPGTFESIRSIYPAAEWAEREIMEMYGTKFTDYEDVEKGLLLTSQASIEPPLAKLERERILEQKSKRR
UniProt A0A097ATH9: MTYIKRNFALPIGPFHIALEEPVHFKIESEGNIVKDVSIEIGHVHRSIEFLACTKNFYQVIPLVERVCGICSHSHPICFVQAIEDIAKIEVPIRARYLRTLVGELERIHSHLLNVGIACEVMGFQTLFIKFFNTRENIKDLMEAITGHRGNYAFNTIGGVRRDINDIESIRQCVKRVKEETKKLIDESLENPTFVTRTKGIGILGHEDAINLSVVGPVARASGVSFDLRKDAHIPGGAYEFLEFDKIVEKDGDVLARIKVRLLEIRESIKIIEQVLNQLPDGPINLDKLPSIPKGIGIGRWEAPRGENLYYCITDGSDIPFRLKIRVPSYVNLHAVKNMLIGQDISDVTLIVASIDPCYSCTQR
UniProt A0A097ATH4: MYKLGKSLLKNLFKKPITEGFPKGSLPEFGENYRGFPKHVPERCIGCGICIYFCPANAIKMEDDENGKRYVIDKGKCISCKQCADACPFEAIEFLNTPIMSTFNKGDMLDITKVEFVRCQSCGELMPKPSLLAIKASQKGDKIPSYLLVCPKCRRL
UniProt A0A097ATH8: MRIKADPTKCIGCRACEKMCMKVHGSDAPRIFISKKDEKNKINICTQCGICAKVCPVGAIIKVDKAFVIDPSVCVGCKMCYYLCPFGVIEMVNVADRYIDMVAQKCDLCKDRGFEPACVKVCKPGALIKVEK

The target in the assay is T1, His-tagged subunit Ech2C (Thermoanaerobacter kivui).
T1 sequence: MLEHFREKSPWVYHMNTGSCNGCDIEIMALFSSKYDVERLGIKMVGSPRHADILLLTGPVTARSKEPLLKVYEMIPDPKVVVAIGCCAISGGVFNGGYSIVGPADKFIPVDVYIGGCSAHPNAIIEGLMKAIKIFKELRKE
As to the kind of experiment: affinity purification with mass spectrometry; Ech2C-His produced in trans in T. kivui; membranes solubilised with DDM, Ni2+-NTA resin, washed with 30 mM imidazole, eluted with 150 mM imidazole, 0.02% DDM, pH 7.5, anoxic, room temperature; eluate on 12% SDS-PAGE, subunits identified by peptide mass fingerprinting (MALDI-TOF).
On to Ech2A1 (from UniProt A0A097ATI1), for which the binding result is “binds”.
For Ech2A2 (from UniProt A0A097ATF1) the value was “binds”; for Ech2B (from UniProt A0A097ATH3), “binds”.
For Ech2D (from UniProt A0A097ATJ6) the value was “binds”; for Ech2E (from UniProt A0A097ATH9), “binds”; for Ech2F (from UniProt A0A097ATH4), “binds”.
The same measure for HycB2 (from UniProt A0A097ATH8): “binds”.

Values taken from PMC9356269, “A purified energy-converting hydrogenase from Thermoanaerobacter kivui demonstrates coupled H^+-translocation and reduction in vitro” (The Journal of Biological Chemistry, 2022).
